PMC11187247
Results are given in words; binding and its absence hold for the method and conditions named. Binding seen in cells or lysates may run through a third protein. Some entries that bind do so weakly or less than the wild type.

Amino acid sequences for entries named in this document (tags omitted).
UniProt Q96AC1: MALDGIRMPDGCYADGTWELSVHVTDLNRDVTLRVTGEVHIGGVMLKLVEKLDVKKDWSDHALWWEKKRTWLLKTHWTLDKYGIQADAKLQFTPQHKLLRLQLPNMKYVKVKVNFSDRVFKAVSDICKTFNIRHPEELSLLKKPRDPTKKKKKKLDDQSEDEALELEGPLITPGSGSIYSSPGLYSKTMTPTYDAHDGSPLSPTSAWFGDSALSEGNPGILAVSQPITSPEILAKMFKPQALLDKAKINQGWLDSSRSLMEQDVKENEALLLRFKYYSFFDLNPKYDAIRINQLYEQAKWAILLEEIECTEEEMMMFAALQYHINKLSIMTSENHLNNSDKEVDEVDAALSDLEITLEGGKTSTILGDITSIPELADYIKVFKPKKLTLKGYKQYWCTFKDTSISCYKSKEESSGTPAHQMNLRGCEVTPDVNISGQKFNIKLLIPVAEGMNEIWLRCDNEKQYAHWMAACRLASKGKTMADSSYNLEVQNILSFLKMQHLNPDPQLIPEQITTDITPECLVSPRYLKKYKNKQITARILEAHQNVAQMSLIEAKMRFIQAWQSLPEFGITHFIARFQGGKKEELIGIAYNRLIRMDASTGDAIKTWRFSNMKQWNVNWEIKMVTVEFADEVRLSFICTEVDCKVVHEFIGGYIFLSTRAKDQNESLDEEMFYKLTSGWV

What was measured:
Experiment in all cases: pull-down; biotinylated peptides on streptavidin Dynabeads M-280; 200 μg protein extracts of HUVEC in PBST, overnight at 4°C under shaking; western blot with anti-KINDLIN2; only the target purified
[1] = target: T1, Biotinylated Integrin beta 1 peptide pep_K794Q (human)
T1 sequence (peptide, biotin on the N-terminus): GSAKSAVTTVVNPQYEGK

[2] = target: T2, Biotinylated Integrin beta 1 peptide pep_K794R (human)
T2 sequence (peptide, biotin on the N-terminus): GSAKSAVTTVVNPRYEGK

[3] = target: T3, Biotinylated Integrin beta 1 peptide pep_Ac-K794 (human)
T3 sequence (peptide, biotin on the N-terminus; acetyl-lysine at K794): GSAKSAVTTVVNPKYEGK

Measured: binding

KINDLIN2 (endogenous, HUVEC) (from UniProt Q96AC1 1-680)
binds: all assays above
